These are yes or no findings as the source states them, for the method shown. A result given as binding can be weak or reduced; the word gives no strength.
Assays:
[1] = molecular target: soluble canine B7-H3 with 6xHis tag at the carboxy terminus (canine); assay: SPR, B7H3(4Ig)-His captured on anti-His surface, mAb 6.25-100 nM
[2] = molecular target: soluble canine B7-H3 with 6xHis tag at the carboxy terminus (canine); assay: ELISA, plates coated with soluble B7-H3-His

B1: hBRCA69D (humanized antibody BRCA69D) (antibody, V domains shown)
VH: QVQLVQSGAEVKKPGASVKVSCKASGYTFTSYWMQWVRQAPGQGLEWMGTIYPGDGDTRYTQKFKGRVTITADKSTSTAYMELSSLRSEDTAVYYCARRGIPRLWYFDVWGQGTTVTVSS
VL: DIQMTQSPSSLSASVGDRVTITCRASQDISNYLNWYQQKPGKAPKLLIYYTSRLHSGVPSRFSGSGSGTDFTLTISSLQPEDIATYYCQQGNTLPPTFGGGTKLEIK
notes: Residue limits are my derivation
binding [1]: binds | binding [2]: binds

— patent US20140255407A1 (MacroGenics, published 2014)
